Results from one PubChem assay

Source: PubChem BioAssay AID1159506 (NCATS, 2015).

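Genome-wide siRNA knockdown in TC32 Ewing sarcoma cells, comparing luciferase light from an NR0B1-promoter reporter with a CMV-promoter reporter 48 hours after transfection.
Each siRNA was applied at 20 nM.
A z-score of the log NR0B1-over-CMV signal, less the median of siRNAs with the same seed; more negative means a stronger specific loss of the NR0B1 reporter.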

This is part of the screen; most of the strongest results are not listed here.
Sequences are the guide (antisense) strand, without overhang.

| Sequence | gene | seed-corrected z-score |
|---|---|---|
| `UAUGGAUCUUUUACUAAGC` | SFRP4 | 0.1515 |
| `UCCUAGAUGAUUCAAGUUC` | TRAM1 | 1.425 |
| `UUCUAUCCAUGUUAAAGCC` | CFAP206 | -0.01853 |
| `UCCAUAAUUUCUCUAAUUC` | MALSU1 | 1.285 |
| `AAGGAGAUAAGCCCAAUGG` | CERS5 | 0.6148 |
| `UUCUUUUUAAGGUCCAGUU` | POU4F3 | -1.089 |
| `UUUACUAUUGCAUUGUUGG` | SREK1 | 1.21 |
| `UUUCCUUUCUGGGUAAGGC` | ZNF276 | 0.3439 |
| `UUAGUUGAAACACUGGUGC` | DCBLD1 | 0.481 |
| `AUCCGAGUACCAUCUUUCC` | SPAG17 | -0.8414 |
| `UUCUUGAGCACGUACGACG` | USP20 | -0.7173 |
| `AUCGGUGUAAUUGCUGUUG` | TMPRSS13 | -1.024 |
| `AUGCGUUUCGAAAACAUCC` | BRDT | -0.1335 |
| `UGUUCAUGUAGCAAAGCUC` | UNC13D | 0.185 |
| `UCUGUCUUCCGUGAGUUUC` | SNRNP25 | -0.34 |
| `UUUGUUCCCUCAAUUGCAC` | CALD1 | 3.016 |
| `UUGAUAUCCAGAGGAAGGC` | RBPMS | -0.3727 |
| `UAAAGCACCAUUGUACCCG` | PELI2 | -0.3832 |
| `AUCUCGUUCACUUAUCUGC` | SAMHD1 | 0.5202 |
| `UCUAGUUCCAUAGCCUUCC` | ARID1B | 0.2475 |
| `UUUCCACAUAUCAAAGUUC` | COX17 | 1.376 |
| `AUCUUUACCGCAGUCAAUG` | LYAR | 0.2162 |
| `UACGAGAUAAAGAAUGCUG` | FZD3 | 0.03819 |
| `UUCCUAAGAAGUUCGUUGC` | SERAC1 | -0.5991 |
| `AUAGUAGUGAAUGGUCUGC` | ST3GAL4 | 0.02618 |
| `UUCUCCAUCAGGCUGUCUC` | STC1 | 0.6013 |
| `UUGACGGUCACCGUUUUUC` | MYO9B | -0.2033 |
| `AGCUGCUUCACAAUGAUCC` | PARVB | 0.5288 |
| `UAUAUCUAUCCACUUAUUC` | STEAP1 | 1.398 |
| `UGGUAAUAAAAGGACUUCC` | DTNA | 0.2048 |
| `UCUGAACCUAUCACUGACC` | GPRASP2 | -0.02499 |
| `AUACUCCAAAGUGCAAGCG` | TM4SF18 | 0.4621 |
| `UUGAUUUUCAACUACUGGG` | ANKRD65 | 0.189 |
| `UAGAGGAUAAGCAGGUGGG` | ABCB8 | -0.4216 |
| `AAACCUACUGUAGGGACGG` | ARL17B | -1.058 |
| `UCUGACAGAAAUAAAGGGC` | LOC730378 | -0.05923 |
| `UAGGAGUUGAGCGUGGUGA` | GSG1L | -1.24 |
| `UCCGUUUGAAGAGAGCUCG` | RPS6KA2 | -0.4223 |
| `UCAGGAAGAAGUGGGCGAG` | AP5Z1 | 2.07 |
| `ACAGAUUUGAUGGUCACCG` | TMED4 | 0.2929 |
| `UUUGUUGAGAUUCACAAUG` | TCP11L2 | 0.5738 |
| `UCAUGUACCAGGGACAGGG` | OR2A2 | -0.793 |
| `UCACUGAGCAGAACAGUUG` | CTU2 | 0.5789 |
| `UGCAUGUCUACCAAGUACG` | FZD2 | -0.5896 |
| `UCUUCUUCCGUCAUGAUGG` | LBH | 1.06 |
| `UAUCUCUCUCUUGUAGGCC` | CCDC178 | -0.2296 |
| `UUCGCAGUAGCAACCUUGC` | ZC3H11B | -0.184 |
| `AUUGGAACACUCGCAGGUG` | CSTB | -0.1011 |
| `UGAUUCUCAGGUAAUACAC` | CYP24A1 | 0.4875 |
| `UGAUGGGCAAAUAGCAUGC` | ETV3L | -0.799 |
| `UAGGAAUCCACUUAAGAAC` | MTA3 | 0.5279 |
| `UUCGCAAUGAUAGUGCUUG` | RPA1 | -0.7601 |
| `UAAGCUAUAAUCAAUGUCG` | LBP | 0.07152 |
| `UAACAUACAAAUCUGCAUG` | AGPAT4 | -0.4159 |
| `ACUGUUUUCACCGUCUUGC` | ERICH2 | 1.183 |
| `AAGGCUAACAAUCUCUUCC` | RNF212 | 1.056 |
| `UCCACAGCUAGCUCCAUGC` | LTK | -1.407 |
| `UUGGAACCAAGAUAGCAGG` | TMEM45A | -1.339 |
| `AAACUUAUUCAAGUUGUCC` | PPIAP19 | 0.001513 |
| `UCACUUUUUCAAAAGAAUC` | ZNF675 | -0.2959 |
| `UUGGGAUGGAUAACGAUAG` | PLEKHH2 | -1 |
| `UAUGGUUCGGCCCACCUCU` | CST2 | -0.8226 |

7 of the entries, repeated:

* UCAUGUACCAGGGACAGGG against OR2A2 | seed-corrected z-score -0.793
* AAGGAGAUAAGCCCAAUGG against CERS5 | seed-corrected z-score 0.6148
* UAACAUACAAAUCUGCAUG against AGPAT4 | seed-corrected z-score -0.4159
* AUCUCGUUCACUUAUCUGC against SAMHD1 | seed-corrected z-score 0.5202
* UUUCCACAUAUCAAAGUUC against COX17 | seed-corrected z-score 1.376
* AAACCUACUGUAGGGACGG against ARL17B | seed-corrected z-score -1.058
* UGUUCAUGUAGCAAAGCUC against UNC13D | seed-corrected z-score 0.185